{
  "source": "patent US20250282720A1",
  "about": "“ALKYLSULFENYL THIOCARBONATES: PRECURSORS TO HYDROPERSULFIDES POTENTLY ATTENUATE OXIDATIVE STRESS” (The Johns Hopkins University, priority 2021, published 2025)",
  "type_in_all_cases": "physicochemical",
  "key": {"[1]": {"test": "Kinetics of RSSH release (precursor hydrolysis) in the presence of MMTS, monitored by HPLC", "settings": "precursor 100 μM, MMTS 1 mM, pH 7.4 PBS, 37° C.", "protocol": "After confirming RSSH generation from 1a, the kinetics of RSSH release from alkylsulfenyl thiocarbonates in the presence of MMTS was analyzed by high-performance liquid chromatography (HPLC). Due to the lack of a chromophore in MMTS adduct 7, the decay of the RSSH precursor and formation of the corresponding phenol byproduct was monitored. First-order rate constants were obtained by plotting the precursor decay and phenol byproduct formation as a function of time. […] The observation of similar rate constants for both 1a decay and phenol (4a) formation indicates a rapid reaction of relased RSSH with MMTS, and that these observed rate constants indicate the RSSH release rate. Importantly, 92% of the byproduct phenol 4a is observed. In addition, the effect of pH on the kinetics of RSSH release also was examined.\nThe RSSH release kinetics for precursors containing a variety of para-substituted phenols were then compared. It was hoped to decrease the rate of RSSH release through the introduction of electron-donating groups. Indeed, a small decrease in the RSSH release rate from 1b, equipped with a 4-Me substituent (137±4 min) (Table 1) was observed.\nMMTS (100 μL, 50 mM) was added in pH 7.4 phosphate buffer saline (4.85 mL) containing the DTPA (100 μM) as metal chelator. This solution was preincubated for 10 min at 37° C. and then precursor 1a-f or 8 (50 μL, 10 mM) were independently added into the mixture (total volume=5 mL). The resulting solution was incubated at 37° C. At different time points, an aliquot of 300 μL was taken and quenched with 300 μL 0.1% formic acid solution. These samples were stored at 0° C. until HPLC analysis was performed. The sample (20 μL) was injected into a high-performance liquid chromatography (HPLC) equipped with Phenomenex C-18 reverse phase column (250 mm×4.6 mm, 5 μm). HPLC Method: mobile phase A (H2O) and mobile phase B (ACN), flow rate: 1 mL/min, run time: 21 min, the gradient elution method: 10% to 70% B from 0 to 10 min, 70% to 90% B from 10 to 21 min. The elution was monitored by a UV detector at 240 and 275 nm. First-order rate constants were obtained by plotting the precursor decay and phenol by-product formation as a function of time."}, "[2]": {"test": "RSSH generation / decomposition in the presence of N-acetyl cysteine, UPLC-MS", "settings": "100 μM, N-acetyl cysteine 500 μM, pH 7.4 ammonium bicarbonate, 37° C."}, "[3]": {"test": "Decomposition of precursors in the presence of thiol (NAC / N-acetyl cysteine methyl ester), HPLC", "protocol": "Initially, the decomposition of 1a was analyzed in the presence of 5 equiv of N-acetylcysteine (NAC) in PBS (pH 7.4) by HPLC. […] To investigate the mechanism, this reaction was monitored by UPLC-MS. […] Additionally, a small amount of unsymmetrical dialkyl polysulfide (pink highlight, R^1SSnSR^2, n=0-3) is observed, likely formed via NAC reaction with symmetrical dialkyl polysulfides (Scheme 1-5, eq. 7). As expected, a new peak at 5.65 min corresponding to N-acetyl cysteine-thiocarbonate 9a also is observed, confirming thiol attack at the perthiocarbonate carbonyl carbon of 1a to release RSSH. Due to the unstable nature of RSSH under these experimental conditions, the yield of the by-product 9a was measured as an indication of RSSH yield. The observation of RSSH-derived polysulfides formation as major products led us to anticipate the efficient formation of by-product 9a. […] The lower observed yield of 9a is likely due to its further reaction with RSSH under these conditions. […]\nTo a solution of N-acetyl cysteine methyl ester (500 μM) in pH 7.4 phosphate buffer saline (100 mM) containing DTPA (100 μM), precursor 1a or 8 (100 μM) was added. […] At different time points, an aliquot of the reaction mixture (500 μL) was withdrawn and transferred to pre-cooled 0.1% formic acid (500 μL) and analyzed using HPLC. […]"}, "[4]": {"test": "COS release from RSSH precursors in the presence of thiols, MIMS", "settings": "50 μM, PBS pH 7.4, 37° C."}, "[5]": {"test": "RSSH generation trapped with HPE-IAM or MMTS, UPLC-MS", "settings": "pH 7.4 ammonium bicarbonate buffer, 37° C."}},
  "note": "“And” between values parts separate entries of the source, which are not always exact repeats. Equal values may be shown once.",
  "data": [
    {"compound": "COC(=O)C(NC(C)=O)C(C)(C)SSC(=O)Oc1ccc(C#N)cc1", "note": "(stereo not drawn) [Precursor 1f, Methyl 2-acetamido-3-(((4-cyanophenoxy)carbonyl)disulfaneyl)-3-methylbutanoate]", "values": [
      {"measurement": "4a-f yield (%), phenol by-product", "setting": "[1]", "value": "97 ± 2", "unit": "%"}
    ]},
    {"compound": "COC(=O)C(NC(C)=O)C(C)(C)SSC(=O)Oc1ccc(C)cc1", "note": "(stereo not drawn) [Precursor 1b, Methyl 2-acetamido-3-methyl-3-(((p-tolyloxy)carbonyl)disulfaneyl)butanoate]", "values": [
      {"measurement": "4a-f yield (%), phenol by-product", "setting": "[1]", "value": "93 ± 4", "unit": "%"}
    ]},
    {"compound": "COC(=O)C(NC(C)=O)C(C)(C)SSC(=O)OCc1ccccc1", "note": "(stereo not drawn) [Precursor 8, Methyl 2-acetamido-3-(((benzyloxy)carbonyl)disulfaneyl)-3-methylbutanoate]", "values": [
      {"measurement": "products / RSSH generation in the presence of thiol", "setting": "[2]", "value": "releases RSSH even in the presence of thiol"},
      {"measurement": "decomposition rate in the presence of thiol with respect to 1a", "setting": "[3]; in the presence of thiol", "value": "about six times slower"},
      {"measurement": "COS generation in the presence of thiol (comparison)", "setting": "[4]; NAC 0.25 mM", "value": "slower COS generation"}
    ]},
    {"compound": "COC(=O)C(NC(C)=O)C(C)(C)SSC(=O)Oc1ccc(F)cc1", "note": "(stereo not drawn) [Precursor 1d, Methyl 2-acetamido-3-(((4-fluorophenoxy)carbonyl)disulfaneyl)-3-methylbutanoate]", "values": [
      {"measurement": "4a-f yield (%), phenol by-product", "setting": "[1]", "value": "96 ± 6", "unit": "%"}
    ]},
    {"compound": "COC(=O)C(NC(C)=O)C(C)(C)SSC(=O)Oc1ccc(OC)cc1", "note": "(stereo not drawn) [Precursor 1c, Methyl 2-acetamido-3-(((4-methoxyphenoxy)carbonyl)disulfaneyl)-3-methylbutanoate]", "values": [
      {"measurement": "4a-f yield (%), phenol by-product", "setting": "[1]", "value": "92 ± 1", "unit": "%"}
    ]},
    {"compound": "COC(=O)C(NC(C)=O)C(C)(C)SSC(=O)Oc1ccc(C(F)(F)F)cc1", "note": "(stereo not drawn) [Precursor 1e, Methyl 2-acetamido-3-methyl-3-(((4-(trifluoromethyl)phenoxy)carbonyl)disulfaneyl)butanoate]", "values": [
      {"measurement": "4a-f yield (%), phenol by-product", "setting": "[1]", "value": "97 ± 1", "unit": "%"}
    ]},
    {"compound": "COC(=O)C(NC(C)=O)C(C)(C)SSC(=O)Oc1ccccc1", "note": "(stereo not drawn) [Precursor 1a, Methyl 2-acetamido-3-methyl-3-((phenoxycarbonyl)disulfaneyl)butanoate]", "values": [
      {"measurement": "4a-f yield (%), phenol by-product", "setting": "[1]", "value": "92% and 92 ± 2%"},
      {"measurement": "products / RSSH generation in the presence of thiol", "setting": "[2]", "value": "predominantly produces RSSH"},
      {"measurement": "formation of by-product 9a (indication of RSSH yield)", "setting": "[3]; 5 equiv of N-acetylcysteine methyl ester", "value": 53, "unit": "%"},
      {"measurement": "RSSH generation, trapping with HPE-IAM", "setting": "[5]; 10 equiv HPE-IAM", "value": "RSS-HPE-AM 5 formation"},
      {"measurement": "RSSH generation, trapping with MMTS", "setting": "[5]; 10 equiv MMTS", "value": "RSS-S-Me 7 formation with no evidence of dialkyl trisulfide 6"},
      {"measurement": "COS production with respect to precursor 13", "setting": "[4]; NAC 0.25 mM (5 equiv)", "value": "approximately 20%"}
    ]},
    {"compound": "COc1ccc(OC(=O)SSCc2ccccc2)cc1", "note": "[Compound 13, SS-benzyl O-(4-methoxyphenyl)carbono(dithioperoxoate), reference compound]", "values": [
      {"measurement": "products / RSSH generation in the presence of thiol", "setting": "[2]", "value": "exclusive unsymmetrical disulfide 14 formation"}
    ]}
  ]
}
